Laboratory results reported in publication PMC10706732.
Results are given in words; binding and its absence hold for the method and conditions named. Binding calls can cover weak binding; strength is not graded here.

Key:
[1] = target: T1, Human ceruloplasmin (human) (UniProt P00450); assay: native gel or EMSA; PAGE without detergents; LF or LF/8OA added to human or murine serum instead of purified CP; CP band stained with o-dianisidine; only the binder purified
T1 sequence: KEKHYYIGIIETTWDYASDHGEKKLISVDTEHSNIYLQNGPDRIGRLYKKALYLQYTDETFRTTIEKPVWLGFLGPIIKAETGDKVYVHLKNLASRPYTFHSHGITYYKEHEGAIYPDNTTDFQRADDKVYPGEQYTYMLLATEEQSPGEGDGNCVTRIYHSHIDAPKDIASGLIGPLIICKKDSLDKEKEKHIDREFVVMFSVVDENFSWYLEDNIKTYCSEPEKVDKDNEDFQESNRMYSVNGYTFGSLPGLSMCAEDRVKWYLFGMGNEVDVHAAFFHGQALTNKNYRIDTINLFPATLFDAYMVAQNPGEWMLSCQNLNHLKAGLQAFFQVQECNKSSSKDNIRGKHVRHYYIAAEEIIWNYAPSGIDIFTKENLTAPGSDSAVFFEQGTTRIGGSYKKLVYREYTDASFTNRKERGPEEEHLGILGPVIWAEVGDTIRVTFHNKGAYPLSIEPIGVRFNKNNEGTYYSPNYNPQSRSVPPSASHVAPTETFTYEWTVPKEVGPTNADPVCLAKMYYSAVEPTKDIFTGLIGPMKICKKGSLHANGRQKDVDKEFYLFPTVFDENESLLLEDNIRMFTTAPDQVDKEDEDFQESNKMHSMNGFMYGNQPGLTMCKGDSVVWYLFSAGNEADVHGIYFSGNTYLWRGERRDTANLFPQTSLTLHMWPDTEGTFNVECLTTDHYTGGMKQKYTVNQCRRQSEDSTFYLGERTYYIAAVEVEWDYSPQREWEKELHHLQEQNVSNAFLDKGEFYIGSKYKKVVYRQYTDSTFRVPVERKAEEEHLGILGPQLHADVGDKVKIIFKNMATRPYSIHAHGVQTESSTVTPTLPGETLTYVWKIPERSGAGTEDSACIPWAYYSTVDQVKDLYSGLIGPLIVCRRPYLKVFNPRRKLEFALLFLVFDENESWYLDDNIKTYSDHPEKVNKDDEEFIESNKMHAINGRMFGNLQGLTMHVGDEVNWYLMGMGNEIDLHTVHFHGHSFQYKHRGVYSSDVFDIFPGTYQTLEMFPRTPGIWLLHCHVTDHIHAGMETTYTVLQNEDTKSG

[2] = target: T2, Murine ceruloplasmin (murine) (UniProt Q61147); assay: as above
T2 sequence: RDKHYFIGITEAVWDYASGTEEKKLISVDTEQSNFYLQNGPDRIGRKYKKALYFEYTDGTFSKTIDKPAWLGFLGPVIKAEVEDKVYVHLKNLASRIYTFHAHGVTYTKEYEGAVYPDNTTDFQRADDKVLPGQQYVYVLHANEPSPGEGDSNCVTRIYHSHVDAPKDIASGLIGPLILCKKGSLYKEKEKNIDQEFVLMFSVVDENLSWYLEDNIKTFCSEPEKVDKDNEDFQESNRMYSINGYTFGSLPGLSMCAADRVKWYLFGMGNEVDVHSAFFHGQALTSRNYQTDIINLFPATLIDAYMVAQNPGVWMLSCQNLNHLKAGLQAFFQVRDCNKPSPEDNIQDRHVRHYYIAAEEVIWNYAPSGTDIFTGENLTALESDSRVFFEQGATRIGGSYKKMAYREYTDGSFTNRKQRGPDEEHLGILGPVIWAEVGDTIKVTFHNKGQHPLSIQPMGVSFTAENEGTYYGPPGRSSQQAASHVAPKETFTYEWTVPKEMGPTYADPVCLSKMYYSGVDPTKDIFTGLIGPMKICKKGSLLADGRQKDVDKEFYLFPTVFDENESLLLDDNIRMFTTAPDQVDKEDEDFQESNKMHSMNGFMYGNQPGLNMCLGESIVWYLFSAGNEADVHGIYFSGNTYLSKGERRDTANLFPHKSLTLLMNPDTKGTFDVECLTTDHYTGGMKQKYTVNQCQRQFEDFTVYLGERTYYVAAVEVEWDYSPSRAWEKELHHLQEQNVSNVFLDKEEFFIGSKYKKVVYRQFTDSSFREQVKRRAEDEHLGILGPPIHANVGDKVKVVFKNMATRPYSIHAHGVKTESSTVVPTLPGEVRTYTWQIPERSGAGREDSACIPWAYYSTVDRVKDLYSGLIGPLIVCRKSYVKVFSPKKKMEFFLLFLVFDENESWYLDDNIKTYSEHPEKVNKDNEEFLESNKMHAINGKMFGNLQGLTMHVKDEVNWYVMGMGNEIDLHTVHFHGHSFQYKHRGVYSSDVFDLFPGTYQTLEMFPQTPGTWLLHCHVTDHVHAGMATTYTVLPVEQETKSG

[3] = target: T1, Human ceruloplasmin (human); assay: native gel or EMSA; disc electrophoresis in polyacrylamide gel without detergents; LF or LF/8OA (1-8 ug) added to purified CP (1 ug/lane); CP band stained with o-dianisidine; both purified
[4] = target: T2, Murine ceruloplasmin (murine); assay: as above

Measured: binding

Recombinant human lactoferrin
binds: all assays above
